# Screen size: about 400,000 compounds; about 13,000 (3.2%) were called active. The shares of active, inactive and inconclusive entries below differ from those in the screen. Calls follow the shape of the dose curve; as a rule, active = well fitted cell-killing curve with a large enough effect; inconclusive = small, poorly fitted or top-dose-only effect, or effect the other way; inactive = flat fitted curve, though single readings scatter. A potency beside an inconclusive call is a rough fit, not a confirmed value.
# Assay: qHTS assay for MDR1-selective chemotherapeutics: Primary screen using the drug-selected MDR subline cells KB-V1; also: nearly all actives have a fitted effect of over 60% in size
# Details: KB-V1 MDR cells viability, CellTiter-Glo, 72 h; series mostly up to 46.1 µM
# Procedure, shortened: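 Cytotoxicity toward P-gp-expressing KB-V1 cells was determined as loss of CellTiter-Glo luminescence after 72 h at 37 degrees C. Compounds were tested in quantitative HTS format across a concentration range, with curves fitted to normalized data.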
# Potency is read from the fitted curve at half-maximal effect.
row,SMILES,Potency
1,CN(C)S(=O)(=O)c1cccc(NC(=S)N/N=C/c2cc(Br)ccc2O)c1,"inconclusive: 2.06 µM [cytotoxic, partial curve, poor fit]"
2,Cc1ccc(N2CC(c3nnc(Cc4ccccc4Cl)o3)CC2=O)cc1 (configuration not stated),inactive
3,COc1ccc(N(C(=O)c2ccc(Cl)cc2)S(=O)(=O)c2ccc(C)cc2)cc1,"inconclusive: 29.1 µM [cytotoxic, single point]"
4,CC(C)[C@H](N[C@@H](C)c1ccccc1)c1c(O)ccc2ccccc12,inactive
5,COc1ccc(N(CC(=O)Nc2ccc3c(c2)OCO3)S(=O)(=O)c2ccc(C)cc2)cc1OC,"inconclusive: 4.11 µM [cytotoxic, full curve]"
6,Nc1cc(=O)[nH]c(SCC(=O)Nc2ccc(N3CCCCC3)cc2)n1,"inconclusive: 25.9 µM [rising, partial curve, poor fit]"
7,O=C(Nc1ccn(Cc2ccccc2)n1)c1cccc(F)c1,inactive
8,COC(=O)c1ccccc1NC(=O)CSc1nnnn1C1CCCCC1,"inconclusive: 9.2 µM [cytotoxic, partial curve]"
9,COc1ccc(S(=O)(=O)n2nc(-c3ccco3)nc2NCc2ccc(OC)c(OC)c2)cc1,inactive
10,COc1ccc(-c2nn(-c3ccccc3)cc2/C=C(/C#N)C(N)=O)cc1[N+](=O)[O-],"inconclusive: 5.17 µM [cytotoxic, full curve]"
11,Cc1cc(C)cc(NC(=O)N2CCC(NC(=O)c3ccccc3C)CC2)c1,"inconclusive: 3.26 µM [cytotoxic, partial curve, poor fit]"
12,O=C(C1COc2ccccc2O1)N1CCN(Cc2ccc3c(c2)OCO3)CC1 (configuration not stated),"inconclusive: 23.1 µM [cytotoxic, partial curve, poor fit]"
13,O=C(NCCCN1CCOCC1)c1ccc(Cl)c(S(=O)(=O)N2CCCCCC2)c1,"inconclusive: 10 µM [cytotoxic, partial curve]"
14,COc1ccc(C(=O)c2oc3ccccc3c2NC(=O)COc2ccc(C)cc2)cc1,"inconclusive: 23.1 µM [rising, single point]"
15,COC(=O)c1cc(NC2c3ccccc3C(=O)N2c2ccc(Cl)cn2)cc(C(=O)OC)c1 (configuration not stated),"inconclusive: 5.17 µM [rising, full curve]"
16,COc1cccc(C2CC(=O)Nc3cc(OC)c(OC)c(OC)c32)c1OC (configuration not stated),"inconclusive: 16.4 µM [cytotoxic, single point]"
17,Cc1ccc(NC(=O)Cn2c(=O)n(CCCS(=O)(=O)C3CCCCC3)c(=O)c3ccccc32)cc1F,inactive
18,CCCc1c(C(=O)N2CCN(c3ccccc3OC)CC2)cnn1-c1ccccc1,inactive
19,CN(C)CC1(C)Cc2ccsc2C1O (configuration not stated),inactive
20,CC1C(=O)N2CCCc3cc(S(=O)(=O)N(C)CCC#N)cc1c32 (configuration not stated),inactive
21,COc1ccc(C(C)(O)c2nc(-c3cccc(C(C)C)c3)cs2)cc1 (configuration not stated),"inconclusive: 25.9 µM [cytotoxic, single point]"
22,O=C1c2oc3ccccc3c(=O)c2C(c2cccc(O)c2)N1CCCN1CCOCC1 (configuration not stated),"inconclusive: 29.1 µM [rising, single point]"
23,O=c1c2ccccc2nc2n1CC/C2=C\N1CCN(c2ccc([N+](=O)[O-])cc2)CC1,inactive

row,SMILES,Potency
1,O=C(N/N=C/c1cccc(F)c1)c1c(O)c2ccccc2[nH]c1=O,"inconclusive: 16.4 µM [cytotoxic, single point]"
2,COc1ccc(NC(=O)c2cc(S(=O)(=O)N3CCCCC3)c[nH]2)cc1,inactive
3,CCOC(=O)C(=O)c1cn(C2OCC(OC(C)=O)C(OC(C)=O)C2OC(C)=O)c2ccccc12 (configuration not stated),"inconclusive: 8.2 µM [rising, partial curve]"
4,Cn1ncc([N+](=O)[O-])c1C(=O)Nc1nc2ccccc2n1CCN1CCCCC1,"inconclusive: 16.4 µM [cytotoxic, single point]"
5,COc1ccc([N+](=O)[O-])cc1NC(=O)CCC(=O)c1cccs1,"inconclusive: 29.1 µM [cytotoxic, single point]"
6,Cc1ccc(N2Cc3ccccc3C2=O)cc1,"inconclusive: 20.6 µM [cytotoxic, single point]"
7,CCOc1cc(NC(=S)Nc2ccc(Cl)cc2)c(OCC)cc1NC(C)=O,"inconclusive: 10.3 µM [cytotoxic, partial curve, poor fit]"
8,Cc1cccc(-n2nnnc2-c2cnccc2C(F)(F)F)c1C,"inconclusive: 16.4 µM [cytotoxic, single point]"
9,COc1ccc(C2Cc3ccccc3C(=O)O2)cc1 (configuration not stated),"inconclusive: 25.9 µM [cytotoxic, single point]"
10,COc1ccc(C(=O)C2CCCN(C(=O)c3cnsn3)C2)c(C)c1 (configuration not stated),"inconclusive: 13 µM [cytotoxic, partial curve]"
11,CC(C)c1noc2ncc(C(=O)c3cc(Cl)cc(Cl)c3O)cc12,active: 16.4 µM
12,Cc1ccc(Cl)cc1N1CCN(C(=O)CCCn2c(=O)c3cccn3c3cccnc32)CC1,"inconclusive: 16.4 µM [cytotoxic, partial curve]"
13,O=C(NC1CCCCC1)C(c1cccnc1)N(C(=O)CCl)c1ccccc1Cl (configuration not stated),"inconclusive: 16.4 µM [cytotoxic, single point]"
14,CCOc1ccc(S(=O)(=O)N(CC(=O)NCc2ccncc2)c2ccc(C)cc2)cc1,"inconclusive: 8.2 µM [cytotoxic, partial curve]"
15,O=C(O)CC1C(=O)NCCN1C/C=C/c1ccccc1 (configuration not stated),"inconclusive: 16.4 µM [rising, single point]"
16,COc1cccc(NC(=O)COC(=O)CC(NC(N)=O)c2ccc(Cl)cc2)c1 (configuration not stated),"inconclusive: 23.1 µM [rising, single point]"
17,S=C(NCCNC(=S)Nc1ccccc1)Nc1ccccc1,inactive
18,Cc1ccc(C)c(Nc2nc3c(S(=O)(=O)c4ccc(Br)cc4)nnn3c3ccsc23)c1,inactive
19,Cc1cc(C)cc(-n2c3ccc(NC(=O)Cc4cccc5ccccc45)cc3c(=O)n2C)c1,"inconclusive: 23.1 µM [cytotoxic, single point]"
20,CCOc1ccc(/C=N/NC(=O)COc2ccccc2-c2ccccc2)cc1,"inconclusive: 23.1 µM [cytotoxic, single point]"
21,Cc1ccc(-c2cc(C(F)F)n3ncc(C(=O)N4CCCCC4c4cccnc4)c3n2)cc1 (configuration not stated),"inconclusive: 14.6 µM [cytotoxic, partial curve, poor fit]"
22,CC(C)(CC(=O)O)CC(=O)NCc1c(Cl)cccc1Oc1ccccc1,"inconclusive: 20.6 µM [rising, single point]"
23,Cc1ccc(C(=O)N/N=C\c2cc3c(cc2Br)OCO3)cn1,"inconclusive: 20.6 µM [rising, single point]"

row,SMILES,Potency
1,N#C/C(=C/c1ccc(N2CCCCC2)o1)c1cccc(F)c1,inactive
2,C=CCN(c1ccccc1)S(=O)(=O)c1cccc(C(=O)Nc2ccncc2)c1,"inconclusive: 29.1 µM [cytotoxic, single point]"
3,O=CN/N=C/c1c(O)ccc2ccccc12,"inconclusive: 2.59 µM [cytotoxic, full curve, poor fit]"
4,COc1ccc(C(=O)NNC(=O)c2cc3ccccc3cc2O)cc1,"inconclusive: 5.8 µM [cytotoxic, partial curve]"
5,O=C(O)c1ccccc1NS(=O)(=O)c1cccc(-n2sc3ccccc3c2=O)c1,"inconclusive: 18.4 µM [cytotoxic, single point]"
6,O=S(=O)(Nc1ccc(Cc2ccncc2)cc1)N1CCCC1,"inconclusive: 29.1 µM [cytotoxic, single point]"
7,C[C@@H]1CN([C@@H](C)CO)C(=O)c2cc(NC(=O)CCC(F)(F)F)ccc2O[C@H]1CN(C)S(=O)(=O)c1ccc(Cl)cc1,inactive
8,CCc1ccc2oc(-c3cccc(NC(=O)C(C)(C)Oc4ccc(Br)cc4)c3)nc2c1,inactive
9,CCOC(=O)CSc1nc(N)nc(C)c1Br,"inconclusive: 14.6 µM [rising, partial curve, poor fit]"
10,CC(C)C(C(=O)NC1CCCC1)N(CC1CCCO1)C(=O)CNS(=O)(=O)c1ccccc1 (configuration not stated),"inconclusive: 7.31 µM [cytotoxic, partial curve, poor fit]"
11,CC12CCC(C(=O)N(Cc3ccccc3)Cc3ccccc3)(OC1=O)C2(C)C (configuration not stated),"inconclusive: 4.11 µM [cytotoxic, full curve]"
12,COc1cccc(-n2c(SCC(=O)N3CCCc4ccccc43)nc3c([nH]c4ccccc43)c2=O)c1,inactive
13,COc1cc(OC)nc(C(NC(=O)C2CCN(Cc3ccc(Oc4ccccc4)cc3)CC2)c2ccccc2C)n1 (configuration not stated),inactive
14,COc1cc(NC(=O)NC(C)c2c(-n3cccc3)sc3c2CCN(C)C3)cc(OC)c1 (configuration not stated),inactive
15,O=CN1CCCN(Cc2nc(-c3cccc(Cl)c3)no2)CC1,"inconclusive: 29.1 µM [rising, partial curve, poor fit]"
16,Cc1ccc(NC(=O)c2cnc(SCC(=O)NCC3CCCO3)n(C)c2=O)cc1C (configuration not stated),"inconclusive: 14.6 µM [rising, single point]"
17,COc1cc(OC)cc(C(=O)N(Cc2nc(-c3cccc(C)c3)no2)C(C)C)c1,"inconclusive: 16.4 µM [cytotoxic, single point]"
18,COc1cccc(-c2ncn(CCc3ccccc3OC)c2C(C)C)c1,active: 11.6 µM
19,COc1ccc(NC(=O)c2ccc(Br)c(S(=O)(=O)N3CCOCC3)c2)cc1,active: 20.6 µM
20,COc1ccc(NC(=O)NNC(=O)c2cc(C3CC3)nc3ccccc23)c(OC)c1,inactive
21,Cc1ccc(N(CC(=O)Nc2ccc3c(c2)OCCO3)S(=O)(=O)c2c(C)noc2C)cc1,"inconclusive: 23.1 µM [cytotoxic, single point]"

# No new results follow: entries from further up.
row,SMILES,Potency
1,N#C/C(=C/c1ccc(N2CCCCC2)o1)c1cccc(F)c1,inactive
2,C=CCN(c1ccccc1)S(=O)(=O)c1cccc(C(=O)Nc2ccncc2)c1,"inconclusive: 29.1 µM [cytotoxic, single point]"
3,O=CN/N=C/c1c(O)ccc2ccccc12,"inconclusive: 2.59 µM [cytotoxic, full curve, poor fit]"

# From PubChem BioAssay AID1347076 (National Center for Advancing Translational Sciences (NCATS), 2019)
